{"source": "paper PMC7698760", "about": "(2020)", "experiment": "general procedure: solution-phase peptide synthesis; DCC/HOSu (DCC/DMAP for ester bonds)", "conditions": "late stage modification step, hydrochloride", "data": [{"substance": "Boc-Orn(Boc)-Orn-Phe-COOH", "values": [{"measurement": "step yield", "value": 89.4, "unit": "%"}]}]}
